Source: PubChem BioAssay AID1671190 (National Center for Advancing Translational Sciences (NCATS), 2021)
The whole screen tested about 580,000 compounds, of which about 6,100 (1.1%) were called active. This list was built around the results that the source calls inconclusive (neither active nor inactive); the mix of calls is not that of the screen. Calls come from the whole dose curve; as a rule, active = well fitted inhibition curve with a large enough effect; inconclusive = small, poorly fitted or top-dose-only effect, or another doubt; inactive = no such curve, though single readings can be large or run the other way. A potency beside an inconclusive call is a rough fit, not a confirmed value.

Sequences of proteins named here, by UniProt entry; tags and fusion partners are left off.
UniProt P18054, whole entry, looked up: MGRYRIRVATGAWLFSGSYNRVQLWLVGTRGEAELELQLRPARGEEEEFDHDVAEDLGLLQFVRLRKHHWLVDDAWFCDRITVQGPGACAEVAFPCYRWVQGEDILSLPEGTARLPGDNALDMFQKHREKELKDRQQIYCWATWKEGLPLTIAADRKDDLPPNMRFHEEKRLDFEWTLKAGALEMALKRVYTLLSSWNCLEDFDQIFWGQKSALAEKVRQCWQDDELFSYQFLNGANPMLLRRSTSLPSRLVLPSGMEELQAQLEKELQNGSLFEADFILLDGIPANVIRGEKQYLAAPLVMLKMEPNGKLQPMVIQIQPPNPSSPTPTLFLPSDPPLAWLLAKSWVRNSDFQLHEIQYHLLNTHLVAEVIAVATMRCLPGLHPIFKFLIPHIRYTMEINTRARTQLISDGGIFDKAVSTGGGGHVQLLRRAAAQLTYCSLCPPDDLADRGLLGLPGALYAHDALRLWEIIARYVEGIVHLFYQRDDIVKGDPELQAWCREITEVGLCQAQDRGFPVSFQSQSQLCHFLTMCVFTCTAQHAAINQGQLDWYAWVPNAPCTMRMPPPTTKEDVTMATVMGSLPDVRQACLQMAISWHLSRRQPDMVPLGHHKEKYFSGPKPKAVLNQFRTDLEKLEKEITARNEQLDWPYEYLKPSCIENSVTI

target: Polyunsaturated fatty acid lipoxygenase ALOX12 (Homo sapiens) (UniProt P18054); experiment: Primary qHTS assay for inhibitors of human arachidonate 12S-lipoxygenase (ALOX12): Round 2; details: purified 12hLO, xylenol orange hydroperoxide absorbance; activity change, negative = inhibition: at 108 µM (top of the series) unless noted
Summary of the method: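 Hydroperoxide product was detected by ferrous iron/xylenol orange as the 573 to 405 nm absorbance ratio. Arachidonic acid at 40 uM (final) was turned over for 30 min at room temperature by 150 nM human 12hLO, pH 7.0 Hepes buffer, after 15 min compound preincubation.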
% is set by controls: 0 for no effect and ±100 for the full control effect; potency is the fitted concentration of half-maximal effect.

| Structure (SMILES) | Potency | activity change, negative = inhibition |
| --- | --- | --- |
| Cc1ccc(-n2nc(C(=O)N3CCN(c4cccc(C(F)(F)F)c4)CC3)c(=O)n(C)c2=O)cc1 | inconclusive: 100 µM [inhibitor, single point] |  |
| CC(C)c1ccc(CNCCCSc2ncccn2)cc1 | active: 25.1 µM |  |
| COc1cccc2cc(C(=O)N3CCN(C/C=C/c4ccccc4)CC3)c(=O)oc12 | inconclusive: 158 µM [inhibitor, partial curve, poor fit] |  |
| COc1cc(NC(=O)CN2C(=O)C(c3ccc(C)cc3)=NC23CCCCC3)cc(OC)c1 | inconclusive: 0.501 µM [inhibitor, full curve, poor fit] |  |
| O=C(NCCCCc1ccccc1)c1cc(=O)c2ccccc2o1 | inconclusive: 112 µM [inhibitor, partial curve, poor fit] |  |
| CN(C)CCNC(=S)Nc1ccc(Cl)cc1Cl | inconclusive: 50.1 µM [inhibitor, partial curve, poor fit] |  |
| Fc1ccc(/C=N/N2CCN(Cc3ccccc3)CC2)cc1 | inconclusive: 28.2 µM [inhibitor, single point] |  |
| O=C(O)Cn1c(-c2cscn2)nc2ccccc21 | inconclusive: 56.2 µM [inhibitor, partial curve, poor fit] |  |
| COc1cccc(NC(=O)CCS(=O)(=O)c2cc(-c3cc(C)no3)ccc2OC)c1 |  | inactive: 18.3% |
| COc1ccc(-n2c(C)cc(/C=C3\SC(=S)NC3=O)c2C)cc1 | inconclusive: 44.7 µM [inhibitor, partial curve, poor fit] |  |
| CCOc1ccc(/C=C2\SC(=S)N(CCC(=O)N(CCO)c3ccccc3)C2=O)cc1 |  | inactive: 10.7% |
| CCCC[n+]1c(C)sc2ccc(C)cc21 | inconclusive: 44.7 µM [inhibitor, partial curve, poor fit] |  |
| CC(C)CCCC(C)NC(=S)NN (stereo not given) | inconclusive: 39.8 µM [inhibitor, partial curve, poor fit] |  |
| N#Cc1ccccc1COC(=O)C(c1ccccc1)c1ccccc1 |  | inactive: 0.554% |
| CC(=O)Nc1ccc(S(=O)(=O)NNC(=O)COc2ccc(Cl)cc2Cl)cc1 |  | inactive: -23.4% |
| O=[N+]([O-])c1ccc(F)c(CN2CCN(c3ncc(Cc4ccccc4)cn3)CC2)c1 | inconclusive: 79.4 µM [inhibitor, single point] |  |
| COc1ccc(C(=O)N2CCN(Cc3ccccc3[N+](=O)[O-])CC2)cc1 | inconclusive: 0.562 µM [inhibitor, full curve, poor fit] |  |
| CCN(CC)C(=O)c1[nH]cnc1C(=O)NCc1ccc(CNC(=O)OC(C)(C)C)cc1 | inconclusive: 3.98 µM [inhibitor, full curve, poor fit] |  |
| O=C(NCCc1ccc2c(c1)OCCO2)c1ccccc1NS(=O)(=O)c1cccs1 |  | inactive: 0.555% |
| Fc1ccc(/C=N/n2c(C3CCCCC3)n[nH]c2=S)cc1 | inconclusive: 31.6 µM [inhibitor, partial curve, poor fit] |  |
| CCOc1ccc(NC(=O)CSc2ncc(-c3ccc(F)cc3)n2Cc2ccco2)cc1 |  | inactive: 28.2% |
| Cc1cc(C)nc(NC(c2cccs2)c2cc(C)sc2NC(=O)c2ccccc2)n1 (stereo not given) | inconclusive: 79.4 µM [inhibitor, single point] |  |
| NNc1ccccc1[N+](=O)[O-] | inconclusive: 0.199 µM [inhibitor, full curve, poor fit] |  |
| Cn1c(N)c(C(=O)CSc2nnc(C3CC3)n2-c2ccccc2)c(=O)[nH]c1=O | inconclusive: 112 µM [inhibitor, partial curve, poor fit] |  |

| Structure (SMILES) | Potency | activity change, negative = inhibition |
| --- | --- | --- |
| CCCOC(=O)/C(=C\c1ccc([N+](=O)[O-])o1)NC(=O)c1ccccc1 |  | inactive: -1.36% |
| Cn1nc(C(F)(F)F)c(C(=O)Nc2ccc(F)cc2F)c1Cl | inconclusive: 63.1 µM [inhibitor, partial curve, poor fit] |  |
| O=C1Nc2ccccc2CNC12CCN(CC1CCNC1)CC2 (stereo not given) | inconclusive: 12.6 µM [inhibitor, full curve, poor fit] |  |
| O=C1/C(=C/c2ccco2)Cc2ccccc21 | inconclusive: 50.1 µM [inhibitor, partial curve, poor fit] |  |
| C[C@@H]1CC=C[C@@H]2[C@H]1C(=O)N(Cc1ccccc1)[C@H]2c1cccc(C#Cc2ccccc2)c1 | inconclusive: 89.1 µM [inhibitor, partial curve, poor fit] |  |
| CN1C[C@H](O)C[C@H]1c1nnc2n1CCN(C(=O)Cc1cccc(F)c1)CC2 | inconclusive: 11.2 µM [inhibitor, partial curve] |  |
| O=c1[nH]c(COc2ccc(Cl)cc2Br)nc2ccccc12 |  | inactive: -0.793% |
| COc1ccccc1CNC(=S)Nc1ccc2nc(N3CCN(C)CC3)cc(C)c2c1 | inconclusive: 15.8 µM [inhibitor, partial curve, poor fit] |  |
| COc1ccc2[nH]c(C(=O)N/N=C/c3ccc(OC)c(O)c3)cc2c1 |  | inactive: 1.28% |
| CSc1nnc2c(n1)OC(c1cc3c(cc1Br)OCO3)N(C(C)=O)c1ccccc1-2 (stereo not given) |  | inactive: -14.9% |
| O=C(Cc1ccc(F)cc1)N(Cc1ccco1)C1CC1 | inconclusive: 39.8 µM [inhibitor, partial curve, poor fit] |  |
| CSC(=S)N/N=C/c1ccccc1 |  | inactive: -28.3% |
| COC(=O)C1CCN(C(=O)CC[C@H]2CNC(=O)[C@@H]3[C@@H](CCN3Cc3ccc(OC)cc3)N2C)CC1 |  | inactive: 31.1% |
| COc1ccc(C=CC(=O)c2c(N)n(C)c(=O)n(C)c2=O)cc1 | inconclusive: 112 µM [inhibitor, single point] |  |
| Cc1c(C=O)c(C)n(-c2cccc(Cl)c2)c1C | inconclusive: 89.1 µM [inhibitor, single point] |  |
| CC(Sc1ccccn1)C(=O)Nc1ccc(Cl)cc1 (stereo not given) | inconclusive: 112 µM [inhibitor, single point] |  |
| O=C1NC[C@@H]2CCCN2C1=O |  | inactive: 3.14% |
| COC(=O)c1nnn(CC(=O)Nc2ccc(Br)cc2F)c1C(=O)OC | inconclusive: 79.4 µM [inhibitor, single point] |  |
| CCNC(=O)NC(=O)C(C)Sc1cc(C)c2ccccc2n1 (stereo not given) |  | inactive: -6.85% |
| Cc1ccc(NC(=O)CSc2cc(=O)n(C)c3ccc(Cl)cc23)c(Br)c1 | inconclusive: 100 µM [inhibitor, partial curve, poor fit] |  |
| Clc1ccc(OCCCn2ccnc2)c(Br)c1 | inconclusive: 0.316 µM [inhibitor, full curve, poor fit] |  |
| Cc1ccc(NS(=O)(=O)c2ccc3c(c2)NC(=O)C(C)C(=O)N3)cc1F (stereo not given) |  | inconclusive: -41.4% [inhibitor] |
| CC(C)c1noc(-c2cccn3c(CNC(=O)c4cccnc4)nnc23)n1 |  | inactive: 14.8% |
| Cn1c(C(=O)Nc2ccc(Cl)cc2)cc2cc(Cl)ccc21 | active: 17.8 µM |  |

Record cards, from the list above.
Cn1nc(C(F)(F)F)c(C(=O)Nc2ccc(F)cc2F)c1Cl is listed as Potency: inconclusive: 63.1 µM [inhibitor, partial curve, poor fit]
CCCOC(=O)/C(=C\c1ccc([N+](=O)[O-])o1)NC(=O)c1ccccc1 is listed as activity change, negative = inhibition: inactive: -1.36%
Cc1ccc(NS(=O)(=O)c2ccc3c(c2)NC(=O)C(C)C(=O)N3)cc1F (stereo not given) is listed as activity change, negative = inhibition: inconclusive: -41.4% [inhibitor]
Clc1ccc(OCCCn2ccnc2)c(Br)c1 is listed as Potency: inconclusive: 0.316 µM [inhibitor, full curve, poor fit]

Additional entries.

| Structure (SMILES) | Potency | activity change, negative = inhibition |
| --- | --- | --- |
| COc1ccc(-c2nc3cc(NC(=O)Cc4ccc(Cl)cc4)ccc3o2)cc1OC | inconclusive: 70.8 µM [inhibitor, partial curve, poor fit] |  |
| CCCS(=O)(=O)c1nc(S(=O)(=O)c2ccc(C)cc2)c(NCc2ccco2)s1 | inconclusive: 35.5 µM [inhibitor, full curve, poor fit] |  |
| OC1(CN2CCCCC2)CCN(Cc2cnn(-c3ccccc3Cl)c2)C1 (stereo not given) |  | inactive: 17.5% |
| Clc1cc2c(nn1)Nc1ccccc1S2 | inconclusive: 112 µM [inhibitor, single point] |  |
| Nc1ccc(N2CCCCC2)c(Cl)c1 |  | inactive: -12.3% |
| CCOC(=O)c1ccc(NC(=O)Cn2nc(SC)c(S(=O)(=O)c3ccc(Cl)cc3)c2N)cc1 | inconclusive: 141 µM [inhibitor, partial curve, poor fit] |  |
| N#Cc1ccc(F)c(Cn2cnc3c(Cl)cc(Cl)cc3c2=O)c1 |  | inactive: 0.687% |
| CC(C)Cn1c(N2CCN(CC(=O)Nc3ccc(Cl)cc3)CC2)nc2ccccc21 |  | inactive: -0.211% |
| CC(CO)Nc1ncnc2c1CN(C1CCCNCC1)C(=O)CN2C (stereo not given) | inconclusive: 3.16 µM [inhibitor, single point] |  |
| COc1cc(CN2CCC(C(=O)NC(c3ccc(F)cc3)c3ccc4ccccc4n3)CC2)cc(OC)c1 (stereo not given) |  | inactive: -27.8% |
| CCc1nnc(NC(=O)CCC(=O)NC2CCCCC2)s1 | inconclusive: 112 µM [inhibitor, single point] |  |
| O=S(=O)(Cc1cccc(F)c1)Cc1nc2ccccc2s1 | inconclusive: 39.8 µM [inhibitor, single point] |  |
| O=C1c2ccccc2NC(c2ccc(-c3ccc(F)cc3)o2)N1O (stereo not given) | active: 39.8 µM |  |
| Cc1c(C(N)=O)sc(NC(=O)C2CCCO2)c1C(=O)OC(C)C (stereo not given) |  | inactive: -28.3% |
| O=C(OCc1c(-c2ccccc2)ncc2ccccc12)c1ccc(C(F)(F)F)cc1 |  | inactive: -14.6% |
| CCOC(=O)c1c[nH]c(=S)n(-c2ccccc2)c1=O | inconclusive: 44.7 µM [inhibitor, partial curve, poor fit] |  |
| COc1ccccc1NC(=O)N1c2ccccc2Sc2ccccc21 | inconclusive: 79.4 µM [inhibitor, partial curve, poor fit] |  |
| COc1ccc(OC)c(-n2nnc3c(sc4nc(C)c(Br)c(C)c43)c2=O)c1 | inconclusive: 126 µM [inhibitor, single point] |  |
| CC1CCc2sc(C(=O)N/N=C/C3CCCCC3)cc2C1 (stereo not given) | inconclusive: 56.2 µM [inhibitor, partial curve, poor fit] |  |
| Cc1nc(C)c(-c2ccc(SCC(=O)Nc3ccc(Cl)c(Cl)c3)nn2)s1 | inconclusive: 141 µM [inhibitor, partial curve, poor fit] |  |
| O=C(O)c1ccc2c(c1)c1c3n2CCNC3CCC1 (stereo not given) |  | inactive: -8.67% |
| c1coc(-c2nc3nc4ccccc4nc3n2-c2ccc3c(c2)OCCO3)c1 | inconclusive: 17.8 µM [inhibitor, partial curve, poor fit] |  |
